Source: article PMC12193022

Amino acid sequences for entries named in this document (tags omitted). A change or cut given only in a name is not applied to a line headed by its entry.
UniProt Q8I3N4: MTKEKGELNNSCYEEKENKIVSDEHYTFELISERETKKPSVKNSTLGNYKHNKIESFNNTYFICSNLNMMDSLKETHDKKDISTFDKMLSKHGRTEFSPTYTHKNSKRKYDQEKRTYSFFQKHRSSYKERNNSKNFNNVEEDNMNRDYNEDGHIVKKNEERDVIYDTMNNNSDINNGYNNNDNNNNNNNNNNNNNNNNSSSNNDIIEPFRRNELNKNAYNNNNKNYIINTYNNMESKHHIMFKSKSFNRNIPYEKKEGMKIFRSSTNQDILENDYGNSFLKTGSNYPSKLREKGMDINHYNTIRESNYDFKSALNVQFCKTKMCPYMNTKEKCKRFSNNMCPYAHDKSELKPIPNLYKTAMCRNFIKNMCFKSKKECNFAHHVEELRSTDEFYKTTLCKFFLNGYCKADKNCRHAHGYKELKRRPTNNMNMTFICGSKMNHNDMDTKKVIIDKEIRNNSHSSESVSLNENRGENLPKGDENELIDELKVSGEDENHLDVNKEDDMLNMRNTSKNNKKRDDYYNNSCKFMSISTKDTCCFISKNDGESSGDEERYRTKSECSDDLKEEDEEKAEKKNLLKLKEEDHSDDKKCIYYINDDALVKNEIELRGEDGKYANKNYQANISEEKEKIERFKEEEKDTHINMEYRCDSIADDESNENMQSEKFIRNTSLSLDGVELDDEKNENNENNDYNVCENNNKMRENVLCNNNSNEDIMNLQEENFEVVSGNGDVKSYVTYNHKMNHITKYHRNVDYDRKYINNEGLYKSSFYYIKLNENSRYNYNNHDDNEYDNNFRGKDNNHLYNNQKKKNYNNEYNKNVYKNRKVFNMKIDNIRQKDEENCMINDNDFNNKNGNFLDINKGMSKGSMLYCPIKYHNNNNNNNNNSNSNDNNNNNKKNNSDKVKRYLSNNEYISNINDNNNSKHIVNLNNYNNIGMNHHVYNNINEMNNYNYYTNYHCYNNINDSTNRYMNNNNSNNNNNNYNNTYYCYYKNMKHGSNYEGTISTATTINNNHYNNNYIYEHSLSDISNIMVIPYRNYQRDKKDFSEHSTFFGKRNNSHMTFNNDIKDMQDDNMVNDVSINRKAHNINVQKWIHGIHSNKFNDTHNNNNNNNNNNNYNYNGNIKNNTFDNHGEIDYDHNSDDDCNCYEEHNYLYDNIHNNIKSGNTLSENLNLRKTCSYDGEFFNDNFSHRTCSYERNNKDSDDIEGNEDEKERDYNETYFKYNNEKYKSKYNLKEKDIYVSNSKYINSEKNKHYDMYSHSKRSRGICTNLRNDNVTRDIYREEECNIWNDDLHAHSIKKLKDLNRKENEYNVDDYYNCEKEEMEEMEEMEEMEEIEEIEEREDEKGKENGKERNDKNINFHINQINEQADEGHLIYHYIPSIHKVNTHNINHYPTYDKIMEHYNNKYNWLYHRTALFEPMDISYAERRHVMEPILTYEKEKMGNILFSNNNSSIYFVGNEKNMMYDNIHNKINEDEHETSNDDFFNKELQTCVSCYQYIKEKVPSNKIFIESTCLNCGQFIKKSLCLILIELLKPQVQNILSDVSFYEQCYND
UniProt Q8II77: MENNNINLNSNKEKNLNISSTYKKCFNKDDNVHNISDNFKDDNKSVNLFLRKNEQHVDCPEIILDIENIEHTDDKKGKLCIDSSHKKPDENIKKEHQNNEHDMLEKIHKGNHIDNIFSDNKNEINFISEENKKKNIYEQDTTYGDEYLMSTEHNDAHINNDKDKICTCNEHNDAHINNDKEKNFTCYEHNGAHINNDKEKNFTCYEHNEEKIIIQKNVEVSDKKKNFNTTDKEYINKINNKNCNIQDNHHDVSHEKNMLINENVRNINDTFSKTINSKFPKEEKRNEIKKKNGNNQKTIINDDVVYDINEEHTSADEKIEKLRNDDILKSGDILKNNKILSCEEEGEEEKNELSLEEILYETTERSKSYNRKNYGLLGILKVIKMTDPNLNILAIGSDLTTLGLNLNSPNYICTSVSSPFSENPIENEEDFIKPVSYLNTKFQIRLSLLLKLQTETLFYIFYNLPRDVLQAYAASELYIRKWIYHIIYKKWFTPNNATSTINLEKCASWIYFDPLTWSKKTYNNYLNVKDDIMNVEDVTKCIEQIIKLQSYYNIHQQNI
UniProt Q8I5L2: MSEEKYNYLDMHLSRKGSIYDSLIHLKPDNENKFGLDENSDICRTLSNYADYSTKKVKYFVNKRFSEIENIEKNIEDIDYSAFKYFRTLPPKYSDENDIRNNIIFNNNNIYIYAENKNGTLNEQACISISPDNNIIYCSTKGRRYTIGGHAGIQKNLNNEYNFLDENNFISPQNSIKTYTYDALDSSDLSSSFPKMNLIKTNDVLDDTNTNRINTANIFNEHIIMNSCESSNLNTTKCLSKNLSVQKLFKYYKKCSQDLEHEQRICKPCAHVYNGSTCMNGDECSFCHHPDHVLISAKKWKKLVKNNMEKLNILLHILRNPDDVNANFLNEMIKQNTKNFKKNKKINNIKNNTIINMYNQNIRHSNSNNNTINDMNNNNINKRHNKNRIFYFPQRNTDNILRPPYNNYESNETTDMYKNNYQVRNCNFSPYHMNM
UniProt O97271: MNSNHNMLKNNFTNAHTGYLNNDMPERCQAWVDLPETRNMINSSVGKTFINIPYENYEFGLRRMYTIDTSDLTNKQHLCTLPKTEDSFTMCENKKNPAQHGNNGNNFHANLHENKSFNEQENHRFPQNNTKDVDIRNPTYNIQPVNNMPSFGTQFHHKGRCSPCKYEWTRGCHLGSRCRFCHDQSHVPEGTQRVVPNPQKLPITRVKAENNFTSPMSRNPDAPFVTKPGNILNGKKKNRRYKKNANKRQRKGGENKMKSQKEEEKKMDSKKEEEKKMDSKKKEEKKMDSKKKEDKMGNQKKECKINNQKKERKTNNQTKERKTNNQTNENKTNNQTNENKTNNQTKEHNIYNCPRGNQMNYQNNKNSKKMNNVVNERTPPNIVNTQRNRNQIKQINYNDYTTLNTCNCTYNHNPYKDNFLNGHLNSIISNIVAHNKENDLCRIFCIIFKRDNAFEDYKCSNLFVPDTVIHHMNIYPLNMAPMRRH
UniProt Q8II18: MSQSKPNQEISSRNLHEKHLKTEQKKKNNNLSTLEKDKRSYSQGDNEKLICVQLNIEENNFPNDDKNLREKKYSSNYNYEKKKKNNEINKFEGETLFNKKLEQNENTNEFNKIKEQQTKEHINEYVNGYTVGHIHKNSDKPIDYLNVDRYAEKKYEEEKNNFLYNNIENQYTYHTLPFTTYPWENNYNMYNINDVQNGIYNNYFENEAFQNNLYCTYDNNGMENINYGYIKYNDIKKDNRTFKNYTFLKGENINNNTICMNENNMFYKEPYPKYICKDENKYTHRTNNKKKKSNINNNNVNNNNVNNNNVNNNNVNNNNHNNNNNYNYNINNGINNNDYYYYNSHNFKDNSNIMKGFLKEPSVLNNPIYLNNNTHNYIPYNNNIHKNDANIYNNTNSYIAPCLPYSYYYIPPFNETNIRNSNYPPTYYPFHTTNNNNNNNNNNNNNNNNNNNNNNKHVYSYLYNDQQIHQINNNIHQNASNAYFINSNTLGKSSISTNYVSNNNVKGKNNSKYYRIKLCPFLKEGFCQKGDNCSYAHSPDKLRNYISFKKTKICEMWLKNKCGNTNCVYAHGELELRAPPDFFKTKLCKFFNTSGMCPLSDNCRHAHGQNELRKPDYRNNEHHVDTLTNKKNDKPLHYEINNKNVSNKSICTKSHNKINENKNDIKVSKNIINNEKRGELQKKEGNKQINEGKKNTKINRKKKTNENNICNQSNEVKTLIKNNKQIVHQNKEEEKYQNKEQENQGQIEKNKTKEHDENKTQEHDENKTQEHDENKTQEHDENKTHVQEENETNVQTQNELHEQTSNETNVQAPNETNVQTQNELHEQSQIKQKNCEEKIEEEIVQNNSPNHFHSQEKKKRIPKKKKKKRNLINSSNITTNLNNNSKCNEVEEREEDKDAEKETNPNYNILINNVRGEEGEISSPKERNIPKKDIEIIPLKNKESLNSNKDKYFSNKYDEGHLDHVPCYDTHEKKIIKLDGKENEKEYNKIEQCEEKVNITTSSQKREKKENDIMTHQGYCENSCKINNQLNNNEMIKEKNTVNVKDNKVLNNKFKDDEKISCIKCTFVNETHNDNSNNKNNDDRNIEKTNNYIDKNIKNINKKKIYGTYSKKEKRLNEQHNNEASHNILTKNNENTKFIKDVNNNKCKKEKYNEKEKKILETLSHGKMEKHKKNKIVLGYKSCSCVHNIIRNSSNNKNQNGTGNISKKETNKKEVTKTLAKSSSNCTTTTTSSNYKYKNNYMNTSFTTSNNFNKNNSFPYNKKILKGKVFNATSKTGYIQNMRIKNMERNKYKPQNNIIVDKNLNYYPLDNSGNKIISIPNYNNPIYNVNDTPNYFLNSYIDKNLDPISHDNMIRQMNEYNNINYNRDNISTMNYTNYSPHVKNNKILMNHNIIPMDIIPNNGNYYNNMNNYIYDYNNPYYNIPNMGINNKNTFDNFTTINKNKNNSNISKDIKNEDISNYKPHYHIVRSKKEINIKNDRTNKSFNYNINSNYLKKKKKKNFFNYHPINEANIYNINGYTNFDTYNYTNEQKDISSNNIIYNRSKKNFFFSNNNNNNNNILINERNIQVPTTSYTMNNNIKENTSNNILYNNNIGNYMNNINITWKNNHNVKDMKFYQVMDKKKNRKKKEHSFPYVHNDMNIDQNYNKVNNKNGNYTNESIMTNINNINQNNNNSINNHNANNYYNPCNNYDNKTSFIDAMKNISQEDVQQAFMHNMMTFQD
UniProt Q8I3A3: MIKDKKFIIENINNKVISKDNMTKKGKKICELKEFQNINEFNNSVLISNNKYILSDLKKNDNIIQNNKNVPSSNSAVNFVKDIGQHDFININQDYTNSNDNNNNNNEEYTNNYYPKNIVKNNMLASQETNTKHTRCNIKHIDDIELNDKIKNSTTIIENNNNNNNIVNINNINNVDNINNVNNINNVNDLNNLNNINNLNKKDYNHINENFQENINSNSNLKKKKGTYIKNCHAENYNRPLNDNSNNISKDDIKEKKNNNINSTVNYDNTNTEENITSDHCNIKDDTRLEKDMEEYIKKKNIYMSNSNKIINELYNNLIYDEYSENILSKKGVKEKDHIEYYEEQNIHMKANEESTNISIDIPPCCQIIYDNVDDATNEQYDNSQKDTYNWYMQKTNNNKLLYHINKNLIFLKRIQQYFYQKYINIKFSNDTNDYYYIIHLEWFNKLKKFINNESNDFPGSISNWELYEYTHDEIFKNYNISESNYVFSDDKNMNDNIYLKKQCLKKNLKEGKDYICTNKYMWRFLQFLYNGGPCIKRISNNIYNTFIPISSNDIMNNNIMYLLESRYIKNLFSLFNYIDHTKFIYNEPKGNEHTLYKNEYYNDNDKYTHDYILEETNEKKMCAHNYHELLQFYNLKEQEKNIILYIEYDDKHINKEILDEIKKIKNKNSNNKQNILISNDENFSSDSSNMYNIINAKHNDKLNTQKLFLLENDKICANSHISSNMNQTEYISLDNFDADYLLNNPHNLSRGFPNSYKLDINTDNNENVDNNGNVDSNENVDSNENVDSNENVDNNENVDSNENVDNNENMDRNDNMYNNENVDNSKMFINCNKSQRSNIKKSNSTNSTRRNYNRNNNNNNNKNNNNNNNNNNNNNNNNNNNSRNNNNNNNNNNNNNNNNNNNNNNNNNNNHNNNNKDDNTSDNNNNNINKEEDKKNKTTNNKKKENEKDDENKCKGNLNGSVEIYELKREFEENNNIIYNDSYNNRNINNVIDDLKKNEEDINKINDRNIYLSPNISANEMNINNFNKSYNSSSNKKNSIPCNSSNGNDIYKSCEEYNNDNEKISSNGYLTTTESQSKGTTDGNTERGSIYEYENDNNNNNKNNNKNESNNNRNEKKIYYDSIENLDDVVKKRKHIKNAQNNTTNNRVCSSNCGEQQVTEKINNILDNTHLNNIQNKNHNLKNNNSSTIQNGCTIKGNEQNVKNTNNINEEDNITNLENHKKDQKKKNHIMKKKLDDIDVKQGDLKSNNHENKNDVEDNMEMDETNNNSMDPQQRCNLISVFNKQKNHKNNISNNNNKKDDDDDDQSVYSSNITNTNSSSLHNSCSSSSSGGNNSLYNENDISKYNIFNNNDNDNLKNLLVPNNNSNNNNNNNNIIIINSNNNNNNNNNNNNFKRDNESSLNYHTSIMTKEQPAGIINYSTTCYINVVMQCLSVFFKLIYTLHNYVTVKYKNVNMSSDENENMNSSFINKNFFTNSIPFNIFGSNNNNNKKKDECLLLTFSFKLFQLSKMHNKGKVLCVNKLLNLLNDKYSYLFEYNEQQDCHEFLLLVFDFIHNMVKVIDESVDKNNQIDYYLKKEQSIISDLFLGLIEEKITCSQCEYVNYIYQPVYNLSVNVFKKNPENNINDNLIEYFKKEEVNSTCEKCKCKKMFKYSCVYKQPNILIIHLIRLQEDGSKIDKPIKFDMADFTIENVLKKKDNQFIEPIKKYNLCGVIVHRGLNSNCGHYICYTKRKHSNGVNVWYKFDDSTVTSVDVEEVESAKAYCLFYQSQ

B1: protein of developing gametocytes PfPDG2 (protein, UniProt C6KSM0 1-1437)
chain: MSVGVPVTKSFNKLKKYPYEINKFDRRETSEYFYLPVDCPRMKKCDDAYCPLAHTKLEKIFHPIVYKTQACQMAKDGACDYFQKCAFYHDSNDKNEAHINWTIWEKKWDKWRNNIDHILTQHNKNDKEIRRKVESILKIRMPHFNYGSNKNNVFLNKNVPTFHTTWQNLSSSTNGNNNMNNTIINNMNNTLSNINSNNNNNNNNNNNNNKMHNLNNMLCSSLNSSSVPCSTSLFNNTWNKSLSNSKKNIKGMEENKNKNSSCWVNELNDINNMTPDKCSNMNNTFVNKNNMYFDETLGYNNNMIDCGMNFDILDNNAYKVVEFCFTDYENNKNKNNCNWKDGNENFNNSSMTSYFSNNGKILENEKSNIYHSNNNYNNNNNNDNNQTSTHFDEALNYNKTCEYLPNLLTSEEVNDNNNKCKKFNTLPTSFKDNIAGNIMNNSNNSCDMLNSKYVLNNSNNTSIFDNYTNLSTLFDMNDSKMNNLTNFSNCNTLEHLSFDELNKSNNNNDDFFISNEKSEDGKNLKFSQFLSSNSSNGVRYGANNNDLSIVNMCGLDTNDNNKKEDNPMDNNNNNNNNNDDNINNNNNNNNNNFLNKEESKEAKTEGTNSNNIQSNENNTKPGNNKNSKKNKNKKNALNNIRNNSINRNLKGVNFSEVVSLNNNEMKSEVQEKKKNNKKENKNNKNNCKEKDQEENKISNEKHINKKEKNKNAGEDDEEDVTITDINVLEKEKSKNQKIKNNENQHNKKNNIGQNNINNNNNNNNSKNGGRNSKKGGDIINNQQTVAGNNKKSEIKNGEKNEKSNNHNNNDNLFNNKNNCSYTQMNKKFTDVNVIENNHISDVNHAKSSISVQSKNNENNMNKEKDNKKKNNNNNNNNNNNNNNNNNNNNNNNNNNNNNNNNILNNISNKENKVITNQKNNGLVGNMSGTIISTNHSNNNERGNKKYMNNYHVNSHVHNKENKNNINNRINVISNNNNNINNIEEDSKNNSNDILTNLNDTNIHQLLMNHGQLDDKDNMKNNKKDDNNIAFNVLTNKENKCNNNYNNIGRAITTAVGTSSFINNSNIGTENKNFVNDIIGDIHEKGRDNNSIFLETDNYNNLNKLIMQENENMFNKNIRSNVKNILDYITMENKNMNNNNNNNNNNNNNNNNSNISDDNALFSNNNYMNKHENLYTNNMINGNKIVDFDNMRNMNSNYNKKNDCMFLFKDNLSISGLGNVNLCNEKNMINESLNNIFKGDNINNNMSLGINSPCLTKEDFFNCAGNNNVVENKSKEYNISDNGINDSCDYTNNLLNIFLSCNSINENFDDANEYNNKINGFKGENHYSYNNVGKNISTDINESYNNSENHFNLFGNYNFFGNNCIHCKSYKNEIKNLTLQIKLMKEEILKYKQLIMSSGINEKFEKNFNSSNFSWNSTKNFNDTYEHKNYVSSIEAND
B2: ornithine aminotransferase PfOAT (enzyme, UniProt Q6LFH8 1-414)
chain: MDFVKELKSSQDYMNNELTYGAHNYDPIPVVLKRGKGVFVYDIEDRRYYDFLSAYSSVNQGHCHPDILNAMINQAKKLTICSRAFFSDSLGVCERYLTNLFGYDKVLMMNTGAEASETAYKLCRKWGYEVKKIPENSAKIIVCNNNFSGRTLGCVSASTDKKCKNNFGPFVPNFLKVPYDDLEALEKELQDPNVCAFIVEPVQGEAGVIVPSDSYFPGVASLCKKYNVLFVADEVQTGLGRTGKLLCTHHYGVKPDVILLGKALSGGHYPISAILANDDVMLVLKPGEHGSTYGGNPLAAAICVEALKVLINEKLCENADKLGAPFLQNLKEQLKDSKVVREVRGKGLLCAIEFKNDLVNVWDICLKFKENGLITRSVHDKTVRLTPPLCITKEQLDECTEIIVKTVKFFDDNL
B3: MKT1 domain-containing protein PF3D7_1003700 (protein, UniProt Q8IK00 1-1308)
chain: MRVRRLQSYLTENNLLKKSSLENIKNLTLGIDALYFLRICSDLKDILSDVSGCISPCIFHMIDKQCEYFKKWDIKIIFIFDGITPKGHKLFSAHYHQYIDEGWLYYVNDEKKLSQKSFSEVNNICNSDISFLLFHYLKYKGYECIYAPYLAISQLAYFLEINLVDIVFGPPTLGLHNVTKIILNIVWKKNYFEWIDILYLLKMWNINKEQFIDACLLAGTEYCLTFPYLNLSHFNNGYKQFNFGTSIEFIKQSPLICYLQHFPNDELRKSHMNAYCLCKSMLKYPLVFLCTGQVNCFFFHSNKDQKCLQKKCDASILNDHTGHNEDGDHVDNASIKKKKKINKKDIISTSDEQNDDSDCSIYNKSSYDKNEEDKFFNNKYNRTITNISTNDCIKLSKDGYLKGDKILDKREEDTEQNYHNSKISYDSYCEQDKKDNTIEHPEVAKEKGKYKNSKLIYEHNSDNSKDRKDTNEDTVMEDSTKHIKDIYAKENYKENDIYKKKNHNNDKENISKLVPKDYIKVVGAKFPTCVYYLMSIGLLSKKLLCVLAMGEWIDYSHPIIDSFEYRDTLIDLREYRCRILGLVSIKLNPFFYKRKVKFFDYGYYINNIMDKDNKATYLNILFNDNFLWKINKDNVSEEMNRQNVKNVDLQFVLRWHLYSESKSISLVAKKCELYDEDMKERKASNDKEKDIYELESSNDNNRGHNNNSDDNNGGDNNNGGDNNNGGDNNNGGDNNNGGVNTNGGDNNNGGDNNNGGDNTNSSNDTNRSDDDNTDPSNNSDYSSNDVDNYEDDDYNNYSDYCKKSNEHTKRKKKYMHYNKHMIYKYNSYYKNILRTNNQNFHSFLCLVYFMFLENLDIFTKNCGVTLFGLLLSEVKNKNIDSNILIIFELFKFGFLTTEALLPPDGKTYPENAYASIQNNNKLDEQDKKSVLLLSRIYSLYNSNIDHSRTYEGLIDFDLCAFFAVVKIIKKTLRQLLQACVTNVLLTNMELIHILPENLYNPFDIHICGFFVTNHFMGVLIKYFLLFDFDDIQNEKETLKRTSDKNMESNKMNNDIETMNDHLLKDKLENQKETEHLSKNNDFKGYDMTTNNHISITQPNKKNNDHINMKEINDKFYTNEQPEDKHMKVDKNQKYGINQVEHKDKRSLIELENNDKNIIYKENYNENGNNSYVYSDEHNLSDDSKTNNYEATHKKHENNLDHKKKEEYKIDEEYCQTPINDDSQNNFNVFEKAIRKKFPSFVNPINDLCNAINTWRDHLCLITQLEQHTNVYDLVSDLKAADNFLEKKISYIGLDKSQTYNRICLSNNK
B4: female gametocyte protein PfFGP1 (protein, UniProt Q8IB92 1-637)
chain: MLNIFSNEDLSLPAEKEEEEEEKLEKSKDKKDLDKIESKKIDRKFSHGSYLSKYDSKRLYYNKRLETKIKSLRKSFRKRYRIVRNNLMKLIKVLKEFPDIKQIKEHETTDGKITINIDVVQKLNKIMDKINIEKLKYNNKKEKRKKKKGIKNKSRNINSNSNTNRNRSRYKSEEYLYPKKKLSKISFSSTLFPLSKRIRYKSNINSLSMENKKNKRKRKKKKKKKKKENNIQNEKLHKRKNIYSKRGNIFSKSKTFGKLHRRRIYKNPYEHRKTFYENIYENLNENLNQHIYENMYENLNQNIYENMYENLNTNMFEITNDNNPQKKYNNTYNNMFENLYGNVYPNELELSYERELDNVYKSLNVNGSHNLNNNSHKYKFQKTFYHNALQNYYPNTSLPFNKNYLKNNNFYYYYMNLKNKKHQNVNHYNDTNNVLVTDFYMYSTLNASFNRLNSLKNKNNFHLFNRNIPNVYLKRANDIIGFNNNNNNNNNNNNNNNNNNNNNNNNNNNSNNNNKIESTYMEHDFLKNLPYTMNNNSNNNMLLKYYPEQHTYVHNITESFFSPNKIFTIRKGKKNKTTNQNKHKLKKFVKDEKIRNLLRTATNEDELLRAINFAKNAGLEFEAKLGDKKLNKLKCTS
B5: SUZ domain-containing protein PF3D7_0218200 (protein, UniProt C6S3B8 1-807)
chain: MAVESKPNNSSKEKNEENDIINKCDDSNKINGKENIFAVEKVGINESGHMSNDNINKNQEKNKKKKKKKNTHKKVNINNTHINIHTTNDKNNGQDINKPEVIERDNIINIKNDTNNILDSSYNEEGNENNRNDINNNNNNNNININNNNINNSCSNNYGLKKKITLLKRNDIKDEGYNNENITTLNNKNNLKNNNNYNDNRNNNNNNKNNINNNNNNNCCSEKTLEQREKEYNKIRARIFSNFNKKQKNVQKTEQNNLNHTYLNNNIINNINNGDNQYAYINNFYHIYHNNSYNHIYRQNNIPICNINNHAPNIEKLNNPYYYHDNHIAYTNYMYSTQNKMNNMKTKQIGHYGINNEDNNNNNNNNINNNNNNNINNNNINNNNVPLCIPQLDNYNKTKNNFNQGTNNFNQGTNNFNKCTNNFNNAKNHIKHNINNTNKNIEHLNNHSIYNFVYPENKNIYDANGNLINNNISYTQLKMNNNINFNIHMESPINQQHNNTFKVNNDTNFFNEPTNKMKKKNKEKKNIHFNNNNNNNNNKCLYKDINQNDHNNSIINTNQNFDHINNVKNTEQNLQKKHNKMSQVSKQSNNKNNKNNSHLKKQININTNNNMDNKNNSHISKNVIVDDNKLKSSHADNSNEIVTKGKKKKNTNKKKKINNINSVNNVNNINSMNNINSMNNIISMNNVNNMNNPMYFPNVNIQKDDSNIALLYNNKPNIDFNNFQLNHINNHMIQNNIMTNNVMLNNNLTTSNFNYNLINYSYEPFYEENLMNDLDYCRDISLYEKRYDRGDNLQQNHKRYDIDFPSL

Target: PfRNF1-GFP-BirA fusion protein (P. falciparum) (UniProt O97260)
Assay: proximity labelling; BioID-MS: Percoll-enriched immature gametocytes of line PfRNF1-pffnpa-GFP-BirA (control WT NF54) treated with 50 µM biotin for 24 h; streptavidin-purified proteins, LC-MS with label-free quantification; at least two-fold enrichment over controls in three biological replicates, FDR 0.01

| binding | Molecule |
| --- | --- |
| binds | B1 |
| binds | B2 |
| binds | B3 |
| binds | B4 |
| binds | B5 |

Target: PfRNF1-GFP-BirA fusion protein (P. falciparum) (UniProt O97260)
Assay: as above
Remark: another data set of the same source

| binding | Molecule |
| --- | --- |
| binds | ATP-dependent RNA helicase DBP1 (from UniProt Q8IAU1) (enzyme) |
| binds | C3H1-ZFP PF3D7_0522900 (from UniProt Q8I3N4 1-1552) |
| binds | CAF1 (from UniProt C0H4T9) |
| binds | CCR4-NOT component PfNOT2 (from UniProt Q8II77) |
| binds | Kelch domain-containing protein PF3D7_1131600 (from UniProt Q8II48 1-2763) |
| binds | NOT1 (from UniProt Q8IIW4) |
| binds | NOT1-G (from UniProt Q8ILS4) |
| binds | PABP1 (from UniProt Q8I5H4) |
| binds | PfFD1 (from UniProt Q8I515) |
| binds | PfFD2 (from UniProt Q8IHQ0) |
| binds | PfFD4 (from UniProt Q8I5L2) |
| binds | PfGD1 (from UniProt C0H566) |
| binds | PfMD3 (male development protein 3) (from UniProt O97271) |
| binds | PfMDV1 (male development gene 1) (from UniProt Q8I5P2) |
| binds | PfPUF1 (from UniProt Q8I3S3) |
| binds | PfZNF4 (zinc finger protein 4) (from UniProt Q8II18) |
| binds | nuclear export mediator factor PfNEMF (from UniProt A0A144A0J9) |
| binds | protein of developing gametocytes PfPDG1 (from UniProt Q8ILS9 1-3026) |
| binds | ubiquitin-like protein PF3D7_0922100 (from UniProt Q8I2T2 1-1542) |
| binds | ubiquitin-specific protease PF3D7_0904600 (from UniProt Q8I3A3 1-1770) (enzyme) |

These are yes or no findings as the source states them, for the method shown. In cells and extracts the contact can be indirect. Here binding means that the protein was enriched with, or labelled near, the bait; the list need not be complete.
